Data taken from PMC9855333, “1-(Arylsulfonyl-isoindol-2-yl)piperazines as 5-HT6R Antagonists: Mechanochemical Synthesis, In Vitro Pharmacological Properties and Glioprotective Activity” (Biomolecules, 2022).

Assay: Metabolic stability in rat liver microsomes (RLM)

With `COc1cc2c(cc1OC)C(=O)C(CC1CCN(Cc3ccccc3)CC1)C2` (stereo not drawn) [Donepezil, reference compound] the “Metabolic Stability Major Metabolite” value (RLM, protein concentration 0.5 mg/mL) was “not detected”, the half-life at 20 µM (male, rat, microsomes, pH 7.4) was 6.32 h and the microsomal CLint at 20 µM (male, rat, microsomes, pH 7.4) was 3.65 µL/min/mg.
